Laboratory results reported in paper PMC12240075.
Positions count from the first letter of the chain named. In names and notes the source's numbering stands. No constants are given. Whether binding was seen depends on the method and setting. Binding seen in cells or lysates may run through a third protein. Some results given as binding are weak or reduced against the parent protein; the word gives no strength. For part of these data: Tags and fused reporters may be left off the sequences shown. Each block holds one molecule with its values, some of them ahead of it.

Amino acid sequences for entries named in this document (tags omitted). Residues count along the entry.
UniProt P11142: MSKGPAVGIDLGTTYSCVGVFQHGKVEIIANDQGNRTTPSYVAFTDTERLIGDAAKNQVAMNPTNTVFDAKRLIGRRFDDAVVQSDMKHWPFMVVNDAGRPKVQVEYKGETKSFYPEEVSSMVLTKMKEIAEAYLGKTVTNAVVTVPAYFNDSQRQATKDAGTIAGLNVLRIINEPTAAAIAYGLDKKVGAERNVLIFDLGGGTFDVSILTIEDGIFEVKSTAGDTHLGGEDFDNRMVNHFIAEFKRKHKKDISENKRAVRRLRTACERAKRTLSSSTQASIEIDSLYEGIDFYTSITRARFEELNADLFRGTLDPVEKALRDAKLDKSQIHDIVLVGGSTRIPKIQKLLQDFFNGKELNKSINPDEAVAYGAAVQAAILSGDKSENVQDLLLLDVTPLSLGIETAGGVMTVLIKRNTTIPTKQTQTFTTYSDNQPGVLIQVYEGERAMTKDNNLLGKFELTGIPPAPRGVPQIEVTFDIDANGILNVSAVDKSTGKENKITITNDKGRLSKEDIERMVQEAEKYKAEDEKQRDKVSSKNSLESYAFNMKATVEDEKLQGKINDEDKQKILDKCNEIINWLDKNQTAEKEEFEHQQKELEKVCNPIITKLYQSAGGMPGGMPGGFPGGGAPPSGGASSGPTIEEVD
UniProt P13473, residues 29-410: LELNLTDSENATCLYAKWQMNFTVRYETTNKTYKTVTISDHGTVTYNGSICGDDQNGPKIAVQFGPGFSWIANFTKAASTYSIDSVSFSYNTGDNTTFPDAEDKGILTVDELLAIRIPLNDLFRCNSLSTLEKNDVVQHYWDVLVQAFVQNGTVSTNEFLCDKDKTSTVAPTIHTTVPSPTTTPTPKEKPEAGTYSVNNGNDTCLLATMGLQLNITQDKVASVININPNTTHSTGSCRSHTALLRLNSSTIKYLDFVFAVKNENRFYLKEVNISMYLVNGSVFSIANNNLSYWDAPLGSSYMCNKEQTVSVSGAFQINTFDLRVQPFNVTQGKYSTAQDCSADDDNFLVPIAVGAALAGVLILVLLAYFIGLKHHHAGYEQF
UniProt P63279: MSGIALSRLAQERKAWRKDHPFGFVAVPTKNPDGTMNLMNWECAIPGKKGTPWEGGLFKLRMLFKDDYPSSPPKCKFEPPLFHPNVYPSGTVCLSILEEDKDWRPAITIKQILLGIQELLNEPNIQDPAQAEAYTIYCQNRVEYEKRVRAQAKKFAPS
UniProt P14618: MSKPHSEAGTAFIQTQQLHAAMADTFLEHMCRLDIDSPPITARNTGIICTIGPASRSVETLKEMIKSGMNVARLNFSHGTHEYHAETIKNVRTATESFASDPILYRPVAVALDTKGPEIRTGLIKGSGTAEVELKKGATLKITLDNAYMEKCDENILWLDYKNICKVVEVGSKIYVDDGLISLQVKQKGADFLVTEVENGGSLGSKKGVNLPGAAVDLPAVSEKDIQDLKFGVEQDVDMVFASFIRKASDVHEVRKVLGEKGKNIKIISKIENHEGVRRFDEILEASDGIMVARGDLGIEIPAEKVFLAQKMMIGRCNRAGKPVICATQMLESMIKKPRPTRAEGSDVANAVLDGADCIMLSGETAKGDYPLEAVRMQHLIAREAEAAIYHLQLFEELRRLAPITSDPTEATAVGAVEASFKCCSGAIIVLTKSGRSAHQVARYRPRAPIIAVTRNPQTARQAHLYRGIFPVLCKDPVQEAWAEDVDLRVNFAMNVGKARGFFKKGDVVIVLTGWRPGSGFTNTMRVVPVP

Columns and labels:
HA-HSC70 [1] = biological target: HA-HSC70 (UniProt P11142); assay: co-IP; both proteins tagged and overproduced in transfected cells (HEK293T); immunoprecipitation by the tag, immunoblot; lysis buffer 200 mM NaCl, 1 mM EDTA, 20 mM Tris (pH 7.5), 0.5% NP-40
HA-HSC70 [2] = biological target: HA-HSC70 (UniProt P11142); assay: co-IP; tagged bait overproduced in transfected HEK293T cells, partner endogenous; lysis buffer 200 mM NaCl, 1 mM EDTA, 20 mM Tris (pH 7.5), 0.5% NP-40; for Lamp2a (Fig. 3I, 6I) cells treated with 10 μM CQ for 3 h
HA-HSC70 [3] = biological target: HA-HSC70 (UniProt P11142); assay: as above; remark: listed apart in the source
[4] = biological target: lysosome-associated membrane protein type 2a (endogenous) (human (endogenous in HEK293T)) (UniProt P13473); assay: co-IP; both proteins endogenous, from cell lysates; lysis buffer 200 mM NaCl, 1 mM EDTA, 20 mM Tris (pH 7.5), 0.5% NP-40
[5] = biological target: Ubc9 (endogenous) (human (endogenous in HEK293T)) (UniProt P63279); assay: as above
GST-HSC70 = GST-HSC70 (UniProt P11142); assay: pull-down; recombinant GST fusion protein incubated with lysates of transfected cells, GST pull-down, immunoblot; in Fig. 3D also lysates of cells treated with 100 μM GA for 24 h; only the target purified
HA-HSC70 [6] = biological target: HA-HSC70 (UniProt P11142); assay: co-IP; both proteins tagged and overproduced in transfected cells (HEK293T); immunoprecipitation by the tag, immunoblot; lysis buffer 200 mM NaCl, 1 mM EDTA, 20 mM Tris (pH 7.5), 0.5% NP-40; remark: listed apart in the source
HA-Lamp2a = HA-Lamp2a (UniProt P13473); assay: as above

Molecule: Flag-PKM2 (from UniProt P14618 1-531)
binding (HA-HSC70 [1]): binds

B2: HA-OGA-K358R (protein, UniProt O60502 1-916)
chain: MVQKESQATLEERESELSSNPAASAGASLEPPAAPAPGEDNPAGAGGAAVAGAAGGARRFLCGVVEGFYGRPWVMEQRKELFRRLQKWELNTYLYAPKDDYKHRMFWREMYSVEEAEQLMTLISAAREYEIEFIYAISPGLDITFSNPKEVSTLKRKLDQVSQFGCRSFALLFDDIDHNMCAADKEVFSSFAHAQVSITNEIYQYLGEPETFLFCPTEYCGTFCYPNVSQSPYLRTVGEKLLPGIEVLWTGPKVVSKEIPVESIEEVSKIIKRAPVIWDNIHANDYDQKRLFLGPYKGRSTELIPRLKGVLTNPNCEFEANYVAIHTLATWYKSNMNGVRKDVVMTDSEDSTVSIQIRLENEGSDEDIETDVLYSPQMALKLALTEWLQEFGVPHQYSSRQVAHSGAKASVVDGTPLVAAPSLNATTVVTTVYQEPIMSQGAALSGEPTTLTKEEEKKQPDEEPMDMVVEKQEETDHKNDNQILSEIVEAKMAEELKPMDTDKESIAESKSPEMSMQEDCISDIAPMQTDEQTNKEQFVPGPNEKPLYTAEPVTLEDLQLLADLFYLPYEHGPKGAQMLREFQWLRANSSVVSVNCKGKDSEKIEEWRSRAAKFEEMCGLVMGMFTRLSNCANRTILYDMYSYVWDIKSIMSMVKSFVQWLGCRSHSSAQFLIGDQEPWAFRGGLAGEFQRLLPIDGANDLFFQPPPLTPTSKVYTIRPYFPKDEASVYKICREMYDDGVGLPFQSQPDLIGDKLVGGLLSLSLDYCFVLEDEDGICGYALGTVDVTPFIKKCKISWIPFMQEKYTKPNGDKELSEAEKIMLSFHEEQEVLPETFLANFPSLIKMDIHKKVTDPSVAKSMMACLLSSLKANGSRGAFCEVRPDDKRILEFYSKLGCFEIAKMEGFPKDVVILGRSL
binding (GST-HSC70): binds

B4: Flag-OGA (protein, UniProt O60502 1-916)
chain: B2 chain with R358K
binding (HA-HSC70 [6]): binds
binding (HA-Lamp2a): binds

More lines, now with the values ahead:

binding (HA-HSC70 [2]): binds
Molecule: pyruvate kinase M2 (endogenous) (from UniProt P14618 1-531)

binding (HA-HSC70 [3]): binds
binding [4]: binds
binding [5]: binds
B1: O-GlcNAcase (endogenous) (protein, UniProt O60502 1-916)
chain: B2 chain with R358K

binding (GST-HSC70): binds
B3: HA-OGA-Q356A/E360A (protein, UniProt O60502 1-916)
chain: B2 chain with Q356A, R358K, E360A
